# Results: publication PMC7913925, “Design and Evaluation of a Polypeptide That Mimics the Integrin Binding Site for EDA Fibronectin to Block Profibrotic Cell Activity” (International Journal of Molecular Sciences, 2021)
# Sequences of proteins named here, by UniProt entry; tags and fusion partners are left off. A change or cut given only in a name is not applied to a line headed by its entry. Residues count along the entry.
# UniProt Q00651: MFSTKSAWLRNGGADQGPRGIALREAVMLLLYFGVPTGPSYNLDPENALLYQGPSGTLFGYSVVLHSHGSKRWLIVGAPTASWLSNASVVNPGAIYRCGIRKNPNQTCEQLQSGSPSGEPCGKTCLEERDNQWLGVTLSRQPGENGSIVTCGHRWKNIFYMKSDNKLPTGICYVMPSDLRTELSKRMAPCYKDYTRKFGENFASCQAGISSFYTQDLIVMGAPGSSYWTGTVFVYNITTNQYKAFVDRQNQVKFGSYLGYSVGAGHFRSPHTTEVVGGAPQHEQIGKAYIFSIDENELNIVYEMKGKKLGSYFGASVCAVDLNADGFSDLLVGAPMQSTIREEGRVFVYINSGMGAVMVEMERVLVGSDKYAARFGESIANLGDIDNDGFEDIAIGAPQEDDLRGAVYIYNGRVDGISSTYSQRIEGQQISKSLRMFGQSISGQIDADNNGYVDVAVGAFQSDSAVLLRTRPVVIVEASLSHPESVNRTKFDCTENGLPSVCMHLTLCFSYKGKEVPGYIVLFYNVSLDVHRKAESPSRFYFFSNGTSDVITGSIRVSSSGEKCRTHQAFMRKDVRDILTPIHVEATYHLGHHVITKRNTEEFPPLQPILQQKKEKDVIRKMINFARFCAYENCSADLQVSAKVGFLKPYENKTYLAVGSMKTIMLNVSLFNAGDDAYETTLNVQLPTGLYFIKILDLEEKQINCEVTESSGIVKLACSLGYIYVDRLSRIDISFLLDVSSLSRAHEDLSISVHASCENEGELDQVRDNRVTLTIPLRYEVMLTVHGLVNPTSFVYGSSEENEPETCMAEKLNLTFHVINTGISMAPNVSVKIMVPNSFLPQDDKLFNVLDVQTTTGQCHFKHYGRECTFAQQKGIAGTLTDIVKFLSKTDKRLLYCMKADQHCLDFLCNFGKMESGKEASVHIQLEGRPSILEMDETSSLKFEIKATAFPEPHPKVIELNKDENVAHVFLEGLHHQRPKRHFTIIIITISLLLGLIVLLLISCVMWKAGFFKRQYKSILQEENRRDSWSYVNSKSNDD
# UniProt P10923, residues 17-294: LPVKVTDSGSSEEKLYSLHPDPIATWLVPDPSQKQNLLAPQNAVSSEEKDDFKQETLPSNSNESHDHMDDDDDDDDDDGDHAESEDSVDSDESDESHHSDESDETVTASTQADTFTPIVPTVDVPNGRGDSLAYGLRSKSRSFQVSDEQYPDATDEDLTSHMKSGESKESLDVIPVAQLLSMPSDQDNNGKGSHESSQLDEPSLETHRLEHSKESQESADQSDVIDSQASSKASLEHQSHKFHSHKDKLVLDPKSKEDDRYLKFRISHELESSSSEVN
# Molecular target: integrin α4 protein (ITGA4) (not stated (endogenous in fibroblasts; mouse NIH/3T3 and human HFL1 cells were cultured)) (UniProt Q00651)
# Experiment: co-IP; 25 µg total protein of cell lysate in nondenaturing lysis buffer, anti-ITGA4 antibodies on protein A/G sepharose beads, Western blot of coeluted proteins; cells treated 48 h with TGF-β1, AF38Pep or TGF-β1+AF38Pep
substance,measurement,value
osteopontin (OPN) (from UniProt P10923 17-294) (ligand),binding,binds

# These are yes or no findings as the source states them, for the method shown. In cells and extracts the contact can be indirect. A result given as binding can be weak or reduced; the word gives no strength.
